PubChem BioAssay AID1159584, Peter MacCallum Cancer Centre | 2016
Shown is one part, drawn at random, of about 18,000 reagents tested. Reagents against one gene are numbered here. Not all columns of the deposit are shown. The record does not give: the amount of reagent, the time to read-out.

Test: 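Genes whose loss is lethal only together with E-cadherin loss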 (primary screen)
Cell system: human MCF10A breast epithelial cells, parental and CDH1-null
Reagent: siRNA against human genes
Measurement: 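ATP luminescence (CellTiter-Glo) viability per line relative to mean mock wells over all plates, and the ratio of CDH1-null to parental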
Scale: CDH1-null / parental viability ratio: higher = CDH1-null cells survive relatively better than parental

CDH1-null / parental viability ratio, by gene and reagent
NPY1R: #1 0.58
IL33R: #1 1.05
PAXIP1: #1 1.1
UBA52: #1 1.82
OR7A10: #1 0.99
PTH2R: #1 1.4
NCSTN: #1 1.61
HNF1B: #1 1.17
CHIC2: #1 1.23
SMCO4: #1 0.7
TTC17: #1 0.93
XCL2: #1 0.76
MSLN: #1 1.33
TSSC4: #1 0.89
SPINK13: #1 0.74
FAM107A: #1 0.73
AHSA2P: #1 0.88
ASIC2: #1 1.19
ALDH9A1: #1 0.92
TGIF2LX: #1 0.95
OSBPL10: #1 1.17
PDLIM1: #1 1.23
CFAP46: #1 0.55; #2 1.09
ARHGAP12: #1 0.77
GRAMD2A: #1 1.37
SAMD3: #1 0.93
PPOX: #1 1.03
EMD: #1 0.97
FBXL19: #1 1.06
LIPH: #1 1.09
ECHDC3: #1 0.91
ZFP1: #1 1.19
GLP1R: #1 1.25
MRPL3: #1 1.14
TP53BP2: #1 0.94
RAB29: #1 0.8
FEM1B: #1 0.97
CRABP1: #1 1.05
WNT2: #1 1.1
TRIM22: #1 1
CTHRC1: #1 1.33
IGFBP6: #1 1.2
ZKSCAN4: #1 1.02
EYA3: #1 0.65

Targets above whose target name begins with M or m:
CDH1-null / parental viability ratio, by gene and reagent
MSLN: #1 1.33
MRPL3: #1 1.14

Continued:
CDH1-null / parental viability ratio, by gene and reagent
PHAF1: #1 1.03
IER2: #1 1.23
ABAT: #1 0.8
EEPD1: #1 0.95
MTRR: #1 0.93
POLR2E: #1 1.07
RAB17: #1 1.19
ADAM18: #1 1.12
HOGA1: #1 1.39
AKR7A2: #1 0.82
CCDC170: #1 1.09
ZBED3: #1 0.82
PLEKHO1: #1 0.93
RIC1: #1 1.09
PMAIP1: #1 1.1
MYL6: #1 1.06
C1GALT1C1: #1 0.86
TTC29: #1 0.98
ADAM28: #1 1.05
CPB2: #1 1.14
DSEL: #1 1.05
MRGBP: #1 0.91
HMX1: #1 0.95
FAT4: #1 0.89
COL7A1: #1 1.13
PNMA2: #1 1.22
FSCB: #1 1.11
ZNF789: #1 0.94
GPR68: #1 1.06
ZXDC: #1 1.13
POLI: #1 0.92
MDH1: #1 1.01
KIR2DS3: #1 0.7
CD79B: #1 1.03
KCNS2: #1 1.46
INSM2: #1 1.04
SRPK2: #1 1.15
FEZF1: #1 0.97
PSMD11: #1 1.11
CHST9: #1 0.86
ZNF510: #1 1.36
TMEM95: #1 1.06
